Assay results taken from the supplement of paper PMC12819154, “High-throughput peptide-centric local stability assay extends protein–ligand identification to membrane proteins, tissues and bacteria” (Nature Structural & Molecular Biology, 2025).
Some of the results follow. Most values lie at the level of the controls, where differences are scatter.

Chains of the proteins cited; added tags and fusions are not shown. Lines headed by an entry give the natural chain unless they say otherwise; changes in a name come on top.
UniProt Q99KP6: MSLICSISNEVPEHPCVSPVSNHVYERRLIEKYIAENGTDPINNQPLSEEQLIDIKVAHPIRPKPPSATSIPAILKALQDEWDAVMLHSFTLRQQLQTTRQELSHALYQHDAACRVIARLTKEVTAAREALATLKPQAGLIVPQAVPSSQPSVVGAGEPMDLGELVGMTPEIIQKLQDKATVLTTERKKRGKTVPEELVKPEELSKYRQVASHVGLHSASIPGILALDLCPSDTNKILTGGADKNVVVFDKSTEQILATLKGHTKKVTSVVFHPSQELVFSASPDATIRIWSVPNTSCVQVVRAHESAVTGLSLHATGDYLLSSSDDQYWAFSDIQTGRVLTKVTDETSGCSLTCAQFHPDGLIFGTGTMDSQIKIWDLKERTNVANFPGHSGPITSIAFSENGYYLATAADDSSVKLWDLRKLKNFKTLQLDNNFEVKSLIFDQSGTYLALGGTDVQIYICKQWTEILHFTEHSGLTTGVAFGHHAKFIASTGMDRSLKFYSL
UniProt Q920S3: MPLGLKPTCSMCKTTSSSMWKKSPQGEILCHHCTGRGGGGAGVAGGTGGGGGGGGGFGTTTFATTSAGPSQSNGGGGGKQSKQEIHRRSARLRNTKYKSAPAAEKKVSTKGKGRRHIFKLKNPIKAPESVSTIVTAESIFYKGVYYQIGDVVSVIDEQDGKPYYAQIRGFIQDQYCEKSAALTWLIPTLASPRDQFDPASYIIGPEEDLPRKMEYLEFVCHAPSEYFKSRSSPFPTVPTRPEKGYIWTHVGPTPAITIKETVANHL
UniProt Q99LD9: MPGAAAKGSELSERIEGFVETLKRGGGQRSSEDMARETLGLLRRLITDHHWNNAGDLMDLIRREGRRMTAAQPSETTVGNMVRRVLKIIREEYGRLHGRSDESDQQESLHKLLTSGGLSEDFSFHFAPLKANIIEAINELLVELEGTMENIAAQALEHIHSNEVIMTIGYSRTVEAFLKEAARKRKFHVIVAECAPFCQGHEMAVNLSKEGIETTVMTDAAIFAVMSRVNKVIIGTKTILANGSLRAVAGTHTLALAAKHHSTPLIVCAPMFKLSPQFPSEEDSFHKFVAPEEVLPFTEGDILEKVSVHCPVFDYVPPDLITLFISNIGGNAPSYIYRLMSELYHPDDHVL
UniProt Q99KK7: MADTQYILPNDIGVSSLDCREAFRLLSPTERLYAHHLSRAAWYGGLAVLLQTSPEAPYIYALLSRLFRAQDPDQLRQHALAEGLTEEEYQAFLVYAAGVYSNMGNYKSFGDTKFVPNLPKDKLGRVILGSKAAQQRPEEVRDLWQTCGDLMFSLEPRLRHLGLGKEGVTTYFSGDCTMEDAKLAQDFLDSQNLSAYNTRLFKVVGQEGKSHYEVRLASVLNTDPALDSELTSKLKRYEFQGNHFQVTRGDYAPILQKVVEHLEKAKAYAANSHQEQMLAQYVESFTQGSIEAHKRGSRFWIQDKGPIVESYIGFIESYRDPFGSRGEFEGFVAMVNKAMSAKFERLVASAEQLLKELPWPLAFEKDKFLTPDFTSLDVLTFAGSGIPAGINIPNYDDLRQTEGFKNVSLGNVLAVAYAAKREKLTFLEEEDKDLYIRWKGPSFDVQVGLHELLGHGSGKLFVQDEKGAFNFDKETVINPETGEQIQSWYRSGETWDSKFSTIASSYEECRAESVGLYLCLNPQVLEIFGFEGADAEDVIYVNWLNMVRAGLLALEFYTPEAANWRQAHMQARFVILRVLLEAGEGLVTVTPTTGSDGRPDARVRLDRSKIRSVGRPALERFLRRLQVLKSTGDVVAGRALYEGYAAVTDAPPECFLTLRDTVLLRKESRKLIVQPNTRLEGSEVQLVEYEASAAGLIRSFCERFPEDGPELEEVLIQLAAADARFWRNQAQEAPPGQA
UniProt Q922H4: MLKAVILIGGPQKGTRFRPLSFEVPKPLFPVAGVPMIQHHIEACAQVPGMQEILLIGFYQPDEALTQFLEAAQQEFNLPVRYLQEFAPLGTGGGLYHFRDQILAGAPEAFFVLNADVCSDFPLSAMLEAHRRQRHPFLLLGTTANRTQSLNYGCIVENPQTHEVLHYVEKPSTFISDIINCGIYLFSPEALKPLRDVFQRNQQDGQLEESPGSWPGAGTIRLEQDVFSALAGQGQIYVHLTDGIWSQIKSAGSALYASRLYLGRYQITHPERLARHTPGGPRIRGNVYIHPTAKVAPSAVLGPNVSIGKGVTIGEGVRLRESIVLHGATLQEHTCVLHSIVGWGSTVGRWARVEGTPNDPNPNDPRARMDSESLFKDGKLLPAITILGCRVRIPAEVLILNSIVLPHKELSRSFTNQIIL
UniProt Q99K01: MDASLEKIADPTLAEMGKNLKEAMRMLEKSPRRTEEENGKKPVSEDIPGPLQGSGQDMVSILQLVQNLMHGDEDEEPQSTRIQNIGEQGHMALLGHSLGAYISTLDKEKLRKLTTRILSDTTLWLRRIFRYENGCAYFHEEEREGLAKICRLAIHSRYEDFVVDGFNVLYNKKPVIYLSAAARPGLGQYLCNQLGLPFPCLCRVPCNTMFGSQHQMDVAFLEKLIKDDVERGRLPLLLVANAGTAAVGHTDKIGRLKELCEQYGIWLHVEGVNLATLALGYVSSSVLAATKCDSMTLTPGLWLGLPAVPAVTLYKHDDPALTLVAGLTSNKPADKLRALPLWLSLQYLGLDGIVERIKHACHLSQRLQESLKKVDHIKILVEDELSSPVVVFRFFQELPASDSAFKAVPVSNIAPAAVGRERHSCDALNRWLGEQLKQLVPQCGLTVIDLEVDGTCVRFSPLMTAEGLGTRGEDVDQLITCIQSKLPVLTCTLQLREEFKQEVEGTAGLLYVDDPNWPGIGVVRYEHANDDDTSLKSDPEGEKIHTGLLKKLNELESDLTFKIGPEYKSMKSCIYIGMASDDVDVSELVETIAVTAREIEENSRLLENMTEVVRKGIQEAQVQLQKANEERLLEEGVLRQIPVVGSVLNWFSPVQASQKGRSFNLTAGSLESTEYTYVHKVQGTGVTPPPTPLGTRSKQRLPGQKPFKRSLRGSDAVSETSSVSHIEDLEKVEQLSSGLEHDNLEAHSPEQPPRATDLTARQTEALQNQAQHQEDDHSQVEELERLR
UniProt Q99J23: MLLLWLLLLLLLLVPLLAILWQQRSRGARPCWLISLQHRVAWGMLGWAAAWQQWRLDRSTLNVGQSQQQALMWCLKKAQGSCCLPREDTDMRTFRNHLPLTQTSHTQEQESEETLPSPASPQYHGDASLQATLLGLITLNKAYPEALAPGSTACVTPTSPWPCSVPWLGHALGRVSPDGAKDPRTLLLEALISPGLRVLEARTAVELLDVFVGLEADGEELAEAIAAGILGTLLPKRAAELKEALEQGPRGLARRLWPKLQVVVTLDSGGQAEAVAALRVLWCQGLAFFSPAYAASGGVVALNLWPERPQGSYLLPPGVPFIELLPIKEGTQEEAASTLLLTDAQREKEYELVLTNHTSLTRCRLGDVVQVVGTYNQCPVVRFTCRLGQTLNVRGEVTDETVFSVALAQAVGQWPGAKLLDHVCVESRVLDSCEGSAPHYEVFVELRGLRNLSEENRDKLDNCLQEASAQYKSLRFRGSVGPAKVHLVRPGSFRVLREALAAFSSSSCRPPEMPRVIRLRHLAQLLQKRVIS
UniProt Q99JY3: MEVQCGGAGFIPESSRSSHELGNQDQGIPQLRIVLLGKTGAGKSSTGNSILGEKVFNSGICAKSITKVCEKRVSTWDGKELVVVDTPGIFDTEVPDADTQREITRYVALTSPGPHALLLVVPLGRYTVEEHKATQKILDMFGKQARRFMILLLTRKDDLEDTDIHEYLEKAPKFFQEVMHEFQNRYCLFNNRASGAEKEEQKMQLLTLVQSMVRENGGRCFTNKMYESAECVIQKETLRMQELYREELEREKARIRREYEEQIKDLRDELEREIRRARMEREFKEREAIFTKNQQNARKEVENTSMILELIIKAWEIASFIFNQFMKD
UniProt Q99J83: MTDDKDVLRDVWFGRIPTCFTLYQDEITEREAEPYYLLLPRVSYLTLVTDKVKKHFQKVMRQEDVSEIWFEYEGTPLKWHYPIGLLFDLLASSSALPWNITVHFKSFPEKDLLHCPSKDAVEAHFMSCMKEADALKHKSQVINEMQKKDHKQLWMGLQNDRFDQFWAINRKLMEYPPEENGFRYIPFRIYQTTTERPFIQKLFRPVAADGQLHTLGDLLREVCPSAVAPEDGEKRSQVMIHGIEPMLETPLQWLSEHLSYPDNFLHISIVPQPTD
UniProt Q99LG0, whole entry: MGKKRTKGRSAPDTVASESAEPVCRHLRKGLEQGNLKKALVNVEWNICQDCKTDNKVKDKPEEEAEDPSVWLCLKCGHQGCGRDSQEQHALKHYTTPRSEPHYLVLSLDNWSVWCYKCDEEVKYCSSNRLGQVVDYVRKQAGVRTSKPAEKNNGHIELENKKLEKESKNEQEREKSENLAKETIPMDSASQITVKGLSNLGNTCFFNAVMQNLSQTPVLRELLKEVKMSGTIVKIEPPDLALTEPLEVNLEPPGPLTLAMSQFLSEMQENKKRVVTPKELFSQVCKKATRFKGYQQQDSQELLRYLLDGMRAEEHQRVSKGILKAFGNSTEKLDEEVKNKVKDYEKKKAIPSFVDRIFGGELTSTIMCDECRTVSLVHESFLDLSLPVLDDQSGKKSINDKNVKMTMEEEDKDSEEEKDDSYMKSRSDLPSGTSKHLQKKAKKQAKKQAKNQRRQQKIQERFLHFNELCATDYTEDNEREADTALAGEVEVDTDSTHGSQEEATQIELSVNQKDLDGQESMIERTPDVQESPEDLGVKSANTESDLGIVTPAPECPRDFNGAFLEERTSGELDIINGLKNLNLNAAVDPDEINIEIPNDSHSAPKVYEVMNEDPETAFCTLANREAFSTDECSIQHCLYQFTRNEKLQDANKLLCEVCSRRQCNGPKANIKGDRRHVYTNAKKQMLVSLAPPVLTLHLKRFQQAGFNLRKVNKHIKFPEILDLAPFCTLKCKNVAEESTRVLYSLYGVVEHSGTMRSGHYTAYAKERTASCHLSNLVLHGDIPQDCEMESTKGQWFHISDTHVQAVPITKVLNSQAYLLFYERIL
UniProt Q920E5: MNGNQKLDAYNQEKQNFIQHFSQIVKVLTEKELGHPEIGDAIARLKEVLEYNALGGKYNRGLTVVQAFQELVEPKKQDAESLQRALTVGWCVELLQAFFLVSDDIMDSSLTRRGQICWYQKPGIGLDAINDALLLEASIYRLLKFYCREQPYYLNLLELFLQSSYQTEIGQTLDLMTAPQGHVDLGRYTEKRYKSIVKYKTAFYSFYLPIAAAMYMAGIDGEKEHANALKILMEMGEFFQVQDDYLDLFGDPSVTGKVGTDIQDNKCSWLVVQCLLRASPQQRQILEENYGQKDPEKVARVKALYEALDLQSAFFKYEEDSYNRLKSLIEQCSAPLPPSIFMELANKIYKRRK
UniProt Q922U1: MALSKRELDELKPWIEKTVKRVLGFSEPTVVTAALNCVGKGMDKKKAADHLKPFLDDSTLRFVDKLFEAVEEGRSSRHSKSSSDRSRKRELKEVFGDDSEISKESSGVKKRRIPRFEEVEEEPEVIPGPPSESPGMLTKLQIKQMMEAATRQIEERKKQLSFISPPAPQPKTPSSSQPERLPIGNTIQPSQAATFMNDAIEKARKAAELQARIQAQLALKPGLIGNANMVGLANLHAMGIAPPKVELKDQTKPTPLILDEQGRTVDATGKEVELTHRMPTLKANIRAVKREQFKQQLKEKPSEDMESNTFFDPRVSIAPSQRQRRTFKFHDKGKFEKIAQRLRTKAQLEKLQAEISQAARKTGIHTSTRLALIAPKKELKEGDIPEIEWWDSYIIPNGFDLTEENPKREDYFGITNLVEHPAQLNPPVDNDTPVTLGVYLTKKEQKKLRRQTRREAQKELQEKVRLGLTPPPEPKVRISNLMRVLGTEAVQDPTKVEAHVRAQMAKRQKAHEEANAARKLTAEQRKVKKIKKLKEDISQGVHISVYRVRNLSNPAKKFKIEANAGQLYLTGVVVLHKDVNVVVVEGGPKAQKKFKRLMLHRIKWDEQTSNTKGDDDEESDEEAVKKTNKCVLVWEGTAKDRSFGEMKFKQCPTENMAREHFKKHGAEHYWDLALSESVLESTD
UniProt Q99J79: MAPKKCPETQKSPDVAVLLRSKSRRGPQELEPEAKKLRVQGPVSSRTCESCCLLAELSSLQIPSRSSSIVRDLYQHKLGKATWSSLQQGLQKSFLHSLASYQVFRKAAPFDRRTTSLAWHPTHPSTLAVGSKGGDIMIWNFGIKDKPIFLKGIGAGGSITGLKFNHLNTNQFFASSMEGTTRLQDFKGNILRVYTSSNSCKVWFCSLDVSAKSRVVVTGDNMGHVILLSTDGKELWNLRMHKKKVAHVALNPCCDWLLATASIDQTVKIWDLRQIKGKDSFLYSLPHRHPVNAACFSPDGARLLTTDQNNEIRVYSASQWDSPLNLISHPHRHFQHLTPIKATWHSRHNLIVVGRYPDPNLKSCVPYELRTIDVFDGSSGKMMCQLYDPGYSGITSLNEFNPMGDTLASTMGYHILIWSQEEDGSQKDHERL

Compound: CN[C@@H]1C[C@H]2O[C@@](C)([C@@H]1OC)n1c3ccccc3c3c4c(c5c6ccccc6n2c5c31)C(=O)NC4 [staurosporine]
Experiment: log2 fold change of tryptic peptide abundance, ligand vs vehicle (limited proteolysis) (log2 ratio); higher = more trypsin-susceptible (destabilized)
Settings: ligand concentration: 20 uM; sample: mouse liver crude lysate; replicate design: treated separately

Target	log2 fold change
UniProt Q99K30 (peptide sequence: NKKGPAEGVLTLR, peptide start residue: 296)	-0.257
UniProt Q99KP6 (peptide sequence: FIASTGMDR, peptide start residue: 489)	-0.349
UniProt Q99JX1 (peptide sequence: ENSSLLTPAAK, peptide start residue: 72)	0.387
UniProt Q920S3 (peptide sequence: SSPFPTVPTRPEK, peptide start residue: 231)	-0.113
UniProt Q99KU6 (peptide sequence: LVSLPITKK, peptide start residue: 106)	0.36
UniProt Q921R7 (peptide sequence: HLSGSLWER, peptide start residue: 405)	-0.00971
UniProt Q99JR1 (peptide sequence: QAITQVVISR, peptide start residue: 224)	-0.485
UniProt Q924W7 (peptide sequence: SSPDPAVNPVPKPK, peptide start residue: 375)	-0.209
UniProt Q99J39 (peptide sequence: RAVPPTPAYELR, peptide start residue: 45)	0.393
UniProt Q921G6 (peptide sequence: YDGGLDSGFHSVDSGSKR, peptide start residue: 294)	-0.685
UniProt Q99KL7 (peptide sequence: VAAEILGIK, peptide start residue: 173)	-0.319
UniProt Q99LD9 (peptide sequence: GSELSERIEGFVETLKR, peptide start residue: 8)	-0.96
UniProt Q921V5 (peptide sequence: KSDALGPPLLDAEPVR, peptide start residue: 33)	-0.109
UniProt Q99KF1 (peptide sequence: DKLSELQLR, peptide start residue: 159)	-0.28
UniProt Q99KK7 (peptide sequence: STGDVVAGR, peptide start residue: 630)	-0.246
UniProt Q99K70 (peptide sequence: SCSHQTSAPSLK, peptide start residue: 375)	-0.0591
UniProt Q922H4 (peptide sequence: AVILIGGPQK, peptide start residue: 4)	-0.385
UniProt Q99K01 (peptide sequence: ILSDTTLWLR, peptide start residue: 117)	0.16
UniProt Q99LI8 (peptide sequence: VVQDTYQIMK, peptide start residue: 127)	-0.406
UniProt Q99LC3 (peptide sequence: YGLLAAILGDK, peptide start residue: 38)	0.417

Target	log2 fold change
UniProt Q99J23 (peptide sequence: GARPCWLISLQHR, peptide start residue: 27)	0.795
UniProt Q99JY3 (peptide sequence: RVSTWDGK, peptide start residue: 72)	-0.325
UniProt Q920C1 (peptide sequence: ISKRMFGELHHFK, peptide start residue: 385)	-0.115
UniProt Q99KK9 (peptide sequence: KGLAPEVADR, peptide start residue: 257)	-0.0329
UniProt Q924A0 (peptide sequence: VVAECTLK, peptide start residue: 345)	-0.246
UniProt Q99J83 (peptide sequence: LFRPVAADGQLHTLGDLLR, peptide start residue: 202)	-0.213
UniProt Q99KW3 (peptide sequence: HNQELHSHLSEEIDRLR, peptide start residue: 1893)	-0.267
UniProt Q99LG0 (peptide sequence: SDLPSGTSK, peptide start residue: 427)	-0.171
UniProt Q921T2 (peptide sequence: ISHLVLPVQPENTLK, peptide start residue: 576)	-0.466
UniProt Q920E5 (peptide sequence: KQDAESLQR, peptide start residue: 76)	-0.3
UniProt Q99L27 (peptide sequence: LDFKDVLLRPK, peptide start residue: 10)	0.415
UniProt Q922U1 (peptide sequence: FHDKGKFEK, peptide start residue: 329)	0.379
UniProt Q99JZ7 (peptide sequence: QSSEGSANKVPCILPIIENGKK, peptide start residue: 366)	-0.435
UniProt Q920R0 (peptide sequence: VAATYEAGALSLK, peptide start residue: 401)	-0.191
UniProt Q99KZ6 (peptide sequence: YSDSSGISR, peptide start residue: 18)	0.376
UniProt Q923D2 (peptide sequence: VISKHDLGHFMLR, peptide start residue: 175)	0.309
UniProt Q925J9 (peptide sequence: MEMCSGSNK, peptide start residue: 678)	-0.692
UniProt Q99JY8 (peptide sequence: REILSPVDIIDR, peptide start residue: 294)	0.561
UniProt Q924Y0 (peptide sequence: IDDLTFDRK, peptide start residue: 64)	0.325
UniProt Q99J79 (peptide sequence: SPDVAVLLR, peptide start residue: 12)	0.0441

Pulled one by one from above (2):
Target	log2 fold change
UniProt Q921T2 (peptide sequence: ISHLVLPVQPENTLK, peptide start residue: 576)	-0.466
UniProt Q920C1 (peptide sequence: ISKRMFGELHHFK, peptide start residue: 385)	-0.115
